This passage reports z-score results from PubChem BioAssay AID1347423 (Functional Genomics Laboratory (NCATS/FGL), 2020).

About 210 (0.4%) of roughly 52,000 sequences were called active.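 How the source made its calls: active means gene whose silencing raises cell survival under the drug, median off-target-corrected z-score across its silencing RNAs 2 or more; inactive means the rest.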 The list shows a part of the results.

A short description of this assay: Resistance to Poly (ADP-Ribose) Polymerase inhibitor: Gene Identification via Genome-wide siRNA Screen. Particulars: mouse BRCA2 R2336H ES cells, olaparib, CellTiter-Glo viability; hits give high values. In outline:
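Mouse BRCA2 R2336H ES cells were reverse-transfected with siRNA (20 nM final), treated at 48 h with 500 nM olaparib, and read by CellTiter-Glo after 72 h. Scores: MAD-based z per siRNA, median per gene, seed off-target correction.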
In general terms: In ATP-based viability assays light output follows the ATP content of the culture.
Regarding “GGUUAUAACACCAGAUGGGTT against 4833421E05Rik”, the z-score is inactive: -0.283.

GGCCUUCAAGGUAUUCGACTT against Cabp7: the z-score is inactive: -0.7. The result for “CCAUUCCUGGAGAUGGUUGTT against 5031410I06Rik” reads inactive: 1.44; that for GCUUCAUAUAGACAAAGCCTT against Epo, inactive: 0.197. For CCCUGAACGCAUCACUAUCTT against Nlgn2, the z-score was inactive: -1.15.

As to GGAGAAGCAAACUGCACCUTT against Cacng6, the z-score is inactive: 0.673.

Consider GGUGUAGCUCUUGAUUAAUTT against Icmt, for which the z-score was inactive: 1.62. The value for GCCCGGAAUUUCUCCUUCATT against ORF31 was inactive: -0.437. Regarding GUGCUUUUCGACUGCAUGATT against BC021785, the z-score is inactive: 0.459. With CCCAUGAACAUUCCCUUAATT against Prdx1, the z-score was inactive: 1.01.

As to “GGAGAAAUAGAUUCAGUGATT against 4933426L22Rik”, the z-score was inactive: -1.73. For the sequence GGUUCCUGGAUGGUUCCUATT against BC032925, the z-score is inactive: -1.26. The result for GGGUGCCCUUUGUCAUGUATT against Rapgef3 reads inactive: 0.705; that for GGUGGAUUUUGAAACUAUUTT against Pcdhb17, inactive: 1.16. The result for GGUGGUACUUACUCAAAAUTT against Fgg reads inactive: 0.299; that for GGUUAUUACCCAGUUCACGTT against Pramel1, inactive: -0.588; that for GGCAGGUUUAACUUUAAUGTT against Cacna1e, inactive: -0.0891.

For GCAUAUGGCACCACAUUGUTT against Psg25, the z-score was inactive: 0.258.

For the sequence CCAAGAUGUGAAAUUCACCTT against Efnb2, the z-score was inactive: 1.51.

Consider GGCAUGCUGAUGGAGUUUUTT against Vip, for which the z-score was inactive: 0.725. In the case of GGAAAACCAUACCAAAAUGTT against Hmox2, the z-score is inactive: -0.474.

With CCCAGAUCCUUACUGACUGTT against Tada3l, the z-score was inactive: -0.913. GCCACCUGGUUAAAUUAAATT against Ceacam9: the z-score was inactive: 0.288. Consider GGAGGUAUUGGUUUCAUCCTT against Impdh2, for which the z-score is inactive: -1.46. The value for “GCUGCACACUGGAAUCACATT against 2900060P06Rik” was inactive: -1.99; that for GGAAGCGAUAAUUUUAAGCTT against Tebp was inactive: 1.23. On to GCCCAGUGUAUAUGCUACUTT against Pirb, for which the z-score is inactive: 0.552. Regarding GAAGCUCAACAACCAGUAUTT against Cited2, the z-score is inactive: -2.48. As for “GGACAUAGAGAAAACAUCUTT against 4933430I17Rik”, the z-score is inactive: 2.07. For the sequence GGAAAUGAAGACAUACCUGTT against Olfr174, the z-score is inactive: 1.33. The result for GCCACUGUUUGAUCUGAAATT against Fhod1 reads inactive: 0.579; that for “GUGAUGUCACUAAUGCCAATT against 2410026K10Rik”, inactive: 0.515; that for GGUCAACCCAUUGUAUAAGTT against Socs5, inactive: -0.185. The value for “CCUUGAUGCUCGUAGGAAGTT against C920006C10Rik” was inactive: -0.101; that for GGAGGGUCUCUAAUCUAUGTT against Slc38a4 was inactive: -0.871. For the sequence CCAAAAGGCGUAUUUUGGCTT against Anp32a, the z-score was inactive: 0.11.

In the case of GGUGAAGAAUGCUACACAATT against Htr5a, the z-score is inactive: 2.78. Turning to GGUGGAUGAAAUCUACACATT against Gtpbp2, the z-score was inactive: -0.323. The result for GCUAAACUCGCUCAAUCUGTT against Cd14 reads inactive: 1.6. Take GGCCAAGAAAAUCCUGUGGTT against AW556797: the z-score is inactive: -2.13. Turning to GGUCUUCUGUCCAUUAGUGTT against Pigc, the z-score was inactive: 0.344. The value for GGAGAAAGCAGAAAUUGAATT against Mfap1 was inactive: -2.5; that for GGAAGAUAGUGUUUUCCACTT against Olfr802 was inactive: 0.573; that for “GGUAACUUGAGAAACAUCCTT against 2700060E02Rik” was inactive: 1.18. For the sequence GGUGAGGAAGUCCUGUGUCTT against Lynx1, the z-score is inactive: 0.272.

Turning to CGUCGUUAACAACACUUUGTT against Gns, the z-score is inactive: 0.825. In the case of GCUUUGUCCGCACAUUAUCTT against Hist2h3c2, the z-score is inactive: 0.315.

With GGCUGAUCAUCCAGUCCAATT against Jund1, the z-score is inactive: -1.19. GGAGAUGCAAAGCUACUCUTT against Epha8: the z-score was inactive: -1.26. On to CGUACAAUAAUUUGUCUACTT against Slc9a6, for which the z-score is inactive: 0.634.

As to GGAGAUCAUCUUUUCUCAUTT against Rga, the z-score is inactive: 1.86. Turning to CCAUCCAAUAAGGUAAACATT against BC034753, the z-score was inactive: 2.81. The result for GGACACAUGGUGUUGACCATT against Zc3hdc1 reads inactive: 0.305; that for “GGAUUGCUUUUGAGCAACATT against 5830436D01Rik”, inactive: 1.92. The value for GGCCAUUCUGUCAAAUUCATT against Smpd1 was inactive: -0.00742; that for GGCAUAAGAAAAUGGACCCTT against Fhit was inactive: 0.339. As for GGGUCAUUCUGCUAUUCCUTT against Taar7d, the z-score is inactive: -0.923.

Consider AUAAAUAGGUAACAGAACCTT against Olfr121, for which the z-score was inactive: -1.52. The value for GGGUUUCUUCGUGUCUAUUTT against Pthr2 was inactive: -1.01; that for GGCUUUUUCUACAUGCGCCTT against Olfr1104 was inactive: -0.409. The result for GGAAGACGAGUUCAUUGUGTT against Rassf2 reads inactive: -0.572. As for GCUGCCGACCAUACUUUCCTT against Psme4, the z-score was inactive: 0.0795.

On to CGGAGCAUUGGGACAAUUUTT against Olfr690, for which the z-score was inactive: -0.493. The result for GGAUACUACAUGAAUCUUATT against Pip5k1b reads inactive: -0.551. With GGAGAUGGUCUCAUUAAGCTT against Psmd13, the z-score is inactive: -1.84. As for GGGCAAGGAGACAGAAUUCTT against Fgf18, the z-score is inactive: 1.83. The result for GGAGCUGCUGAACUGUAGUTT against Leprotl1 reads inactive: 1.01; that for GGCUUUAUGAGAGAGAUGATT against Cryga, inactive: -0.668. GGGACUGAACCCUCUCAAATT against Lsp1: the z-score was inactive: 1.38. The value for UCUGAUCACACUGUUUGGATT against Olfr832 was inactive: -0.216; that for “GGAAAUACAAGCCUUAAAUTT against 5730502D15Rik” was inactive: 0.0492. As for “GGAUCUAUUCUCUCUGAUGTT against A230083H22Rik”, the z-score is inactive: 0.244.

As for CCAGAGUAAUUCAUCAUACTT against Agxt, the z-score was inactive: 0.738.

In the case of GGGAUCUUAAUGAAGAAGATT against Cd7, the z-score was inactive: 0.402.

In the case of GGCUUGUGCAAAUCCCACATT against Ppp1r14a, the z-score was inactive: 0.74. Turning to CCUUCCAUGUCUAAAAUGGTT against Aldh4a1, the z-score is inactive: -0.0755. The value for CCGAAACUGUUUGACCUCATT against Rasal1 was inactive: 0.214; that for “CCAAUCCUGAAUAAUGAGATT against 4931427F14Rik” was inactive: 0.818; that for CCAGGAUAACCGUAUUAAUTT against Gm2a was inactive: -0.226.

Regarding GGACAUCUGGUUAUGAAUGTT against B3galt6, the z-score is inactive: 1.14. The result for CGGAAACCACCUCUGCUAUTT against Catnd2 reads inactive: 2.27; that for GCAGGGUCAUAAUUGUUCUTT against Tpd52l1, inactive: -1.11. Turning to CGACUAAUAUGUCCCAGCUTT against AK122525, the z-score is inactive: -1.76. For the sequence CCAACCAGUUGAGUUCCAGTT against Nefl, the z-score was inactive: -0.628. As for “GGAGGUUUAAUAAAGGCUUTT against G431004K08Rik”, the z-score was inactive: -0.736. The value for GGGACAUUGCAUUGUGAUCTT against Hspa1a was inactive: -0.39.

Regarding GGCAAAAAUACGUUCUAUATT against Slc35a3, the z-score is inactive: 0.565. As to GGAUUGGAUAUUGAGAAGGTT against Smfn, the z-score was inactive: -1.41. The result for “GGAGAUGCAAGGAAAAGUUTT against C230052I12Rik” reads inactive: -1.67; that for GGAGAUUCAGAAGCACAACTT against Fads2, inactive: 0.811; that for GGUCUGAUCAAGGCUGCCATT against Trpm1, inactive: 1.66. The result for “CCCUAUGCAGGGCUCAAUATT against 9930020N01Rik” reads inactive: 1.75. Take GAAGCUUUGUGAUGGAUUATT against Ccl4: the z-score was inactive: 1.53. Consider GCAUGGAUAGAUAAUUCAATT against Atp5a1, for which the z-score is inactive: 1.15. The value for GGCAAUGUCUUCUCCAAUATT against Dedd was inactive: -1.14. The result for “CCUGAUAUUCCAUCCUGAATT against 2410021P16Rik” reads inactive: 0.543; that for GGUCCUAGUUAAUUUCACUTT against Ipmk, inactive: -1.29. Turning to GGGUUCCCUGAAAUGUUAGTT against Atic, the z-score is inactive: -0.321.

For the sequence CCAAACACAUUUUAUUCCATT against Slamf7, the z-score is inactive: 2.49.

With “GGUGCUAAAGGACAUAGGUTT against 2300008B03Rik”, the z-score is inactive: 0.787.

Consider GGAAACUGGUAACUGAUGATT against Acp1, for which the z-score is inactive: -1.24. Take GGCCUAAGUAAACACAAAATT against Zfp307: the z-score was inactive: 0.00636. As to GGUUGCUCAAGAAACAGACTT against Rad50, the z-score is inactive: -0.253. The value for GGCUAGAUGACAACCGCAUTT against Flrt1 was inactive: -0.0796; that for “CCAGGAUUCGGACAAAACUTT against 2810013M15Rik” was inactive: -1.16.
